{
  "source": "patent US20230159587A1",
  "about": "(L-BASE CO., LTD., priority 2021, published 2023)",
  "data": [
    {"test": "general procedure: solution-phase peptide synthesis; HATU / N,N-diisopropylethylamine", "details": "late stage modification step", "units": {"step yield": "% yield"}, "values": [
      {"substance": "Ph-AQTGTGKT", "final purity (method not given)": "purity of 90% or more", "step yield": 33},
      {"substance": "2-PhPh-AQTGTGKT", "final purity (method not given)": "purity of 95% or more", "step yield": 31},
      {"substance": "4-MeOPh-AQTGTGKT", "final purity (method not given)": "89%", "step yield": 10},
      {"substance": "Ac-AQTGTGKT", "step yield": 37},
      {"substance": "Naphthyl-AQTGTGKT", "final purity (method not given)": "85%", "step yield": 33},
      {"substance": "3-PhPh-AQTGTGKT", "final purity (method not given)": "purity of 90% or more", "step yield": 5}
    ]}
  ]
}
